# Data as given in US20220000967A1, “SYNTHETIC PEPTIDES INDUCING IMMUNOGENIC CELL DEATH” (SORBONNE UNIVERSITE, priority 2018, published 2022).
# At least one structure is not confirmed: it was looked up by name or label, or the drawing left a doubt. Where a SMILES comes first, the peptide text is derived from it. [ ]: non-standard residue; d: D form. ξ: configuration not given here. ξP = O=C(O)C1CCCN1
# Tests used:
# [1] = tested on: L5178Y-R; experiment: ATP release assay (luciferase bioluminescence); assay type: cell-based, murine; conditions: KBTX1 at CC100, 2h
# Procedure: (§1) 1×10^6 cells/mL were treated with PKHB1 (CC50 and CC100 for each cell lines) for 2h. Supernatants were used to assess extracellular ATP by a luciferase assay (ENLITEN kit, Promega, Madison Wis., USA) following the manufacturer's instructions. Bioluminescence was assessed in a microplate reader (Synergy HT, BioTek, Software Gen5, Winooski, Vt., USA) at 560 nm.
# [2] = tested on: CEM; experiment: Calreticulin exposure (flow cytometry, confocal microscopy); assay type: cell-based, human; conditions: KBTX-1, FACS and CRT-PE staining
# Procedure: 1×10^6 cells/mL were plated, treated with PKHB1, and incubated for 2h. Cells were harvested, washed, and stained with Calreticulin-PE (FMC-75, Enzo Life Science, Farmingdale, N.Y., USA) antibody (1:1000) in FACS buffer. After 1h of incubation in darkness at room temperature, cells were washed and resuspended in 100Lp of FACS buffer to be assessed by flow cytometry. For confocal microscopy (OlympusX70), poly-Llysine was added 24h to sterile coverslips and 1×10^6 cells/mL were seeded. PKHB1 was added and incubated for 2h. Then, the cells were stained with Calreticulin-PE antibody (1:500) and Hoechst, incubated 1h, and assessed by confocal microscopy.
# [3] = tested on: CEM; experiment: HMGB1 release assay (ELISA); assay type: cell-based, human; conditions: KBTX1 at CC100, 2h
# Procedure: (§2) Supernatants of untreated and treated (PKHB1 CC50 and CC100 for each cell line) leukemic cells (1×10^6 cells/mL) were used to measure extracellular HMGB1 using the HMGB1 ELISA kit for CEM, MOLT-4 or L5178Y-R cells (BioAssay ELISA kit Human or mouse respectively, US biological Life Science Salem, Mass., USA), following the manufacturer instructions. Absorbance was assessed at 450 nm.
# [4] = tested on: CEM; experiment: ATP release assay (luciferase bioluminescence); assay type: cell-based, human; conditions: KBTX1 at CC100, 2h
# Procedure: as §1
# [5] = tested on: L5178Y-R; experiment: HMGB1 release assay (ELISA); assay type: cell-based, murine; conditions: KBTX1 at CC100, 2h
# Procedure: as §2
structure (smiles),measurement,setting,value
"CC(C)C[C@@H]1NC(=O)[C@@H]2CCCN2C(=O)C2CCCN2C(=O)[C@H](Cc2c[nH]c3ccccc23)NC(=O)[C@H](CCCCN)NC(=O)[C@H](C(C)C)NC(=O)[C@H](C(C)C)NC(=O)[C@H](Cc2ccc(O)cc2)NC(=O)[C@H](Cc2ccccc2)NC(=O)[C@H](C(C)C)NC(=O)[C@H](C(C)C)NC(=O)[C@H](CCCCN)NC(=O)[C@H](C(C)C)NC(=O)[C@H](CO)NC1=O (stereo partly drawn) [KBTX-1, -F-Y-V-V-K-W-p-P-L-S-V-K-V-V-] (cyclo(FYVVKW[ξP]PLSVKVV))",ATP release,[1],induces HMGB1 and ATP release
same,calreticulin exposure,[2],induces calreticulin exposure
same,HMGB1 release,[3],induces HMGB1 and ATP release
same,ATP release,[4],induces HMGB1 and ATP release
same,HMGB1 release,[5],induces HMGB1 and ATP release
